From paper PMC10974264
For some assays here: No signal at the amounts used counts as a negative. Weaker means in comparison with the reference protein, sequence or condition of that experiment. For some assays here: Protein sequences can lack the tags named with them. For some assays here: Construct, isoform or probe ends are uncertain for at least one entry. For some assays here: At least one verdict rests on a figure or table, not on a statement of the authors.

Protein sequences, listed by entry. Tags and fused reporters are not part of them. Residues count along the entry.
UniProt P12643, 283-396: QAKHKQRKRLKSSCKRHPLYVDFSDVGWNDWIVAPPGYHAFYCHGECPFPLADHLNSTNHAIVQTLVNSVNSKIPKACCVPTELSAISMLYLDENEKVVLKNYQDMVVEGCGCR
UniProt P02769, 25-607: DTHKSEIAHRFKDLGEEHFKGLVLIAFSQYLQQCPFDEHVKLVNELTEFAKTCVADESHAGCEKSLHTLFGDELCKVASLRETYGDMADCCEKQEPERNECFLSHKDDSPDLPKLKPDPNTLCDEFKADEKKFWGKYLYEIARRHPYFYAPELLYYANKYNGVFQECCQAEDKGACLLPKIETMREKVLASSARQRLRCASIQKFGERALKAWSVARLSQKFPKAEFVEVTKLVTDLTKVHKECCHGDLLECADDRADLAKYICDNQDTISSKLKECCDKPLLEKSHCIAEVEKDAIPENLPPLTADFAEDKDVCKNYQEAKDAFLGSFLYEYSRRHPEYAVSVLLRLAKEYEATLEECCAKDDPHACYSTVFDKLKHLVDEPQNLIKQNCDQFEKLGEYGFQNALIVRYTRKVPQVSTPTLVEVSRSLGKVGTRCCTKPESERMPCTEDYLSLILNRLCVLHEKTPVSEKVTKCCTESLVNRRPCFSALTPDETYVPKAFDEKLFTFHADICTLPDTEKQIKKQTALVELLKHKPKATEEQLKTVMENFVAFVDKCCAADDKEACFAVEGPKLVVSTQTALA

How the values were obtained:
[1] = molecular target: rhBMP-2 (His-tagged, refolded, E. coli-expressed) (human) (UniProt P12643); assay: EMSA; conditions: EMSA: 20 mM HEPES pH 7.4, 150 mM NaCl, 2 mM MgCl2, 2 mM CaCl2, 2 mM KCl, 37 C 1 h, 12% native PAGE at 4 C, recombinant protein, protein details: His tag (pET-15b NdeI/BamHI), single-stranded DNA
BMP-3 (rhBMP-3) = molecular target: T1, BMP-3 (rhBMP-3) (UniProt P12645); assay: EMSA; ELONA; conditions: weak non-specific binding; EMSA: 20 mM HEPES pH 7.4, 150 mM NaCl, 2 mM MgCl2, 2 mM CaCl2, 2 mM KCl, 37 C 1 h, 12% native PAGE at 4 C; label: biotin (ELONA), none in EMSA; single-stranded DNA
T1 sequence (looked up, limits assumed): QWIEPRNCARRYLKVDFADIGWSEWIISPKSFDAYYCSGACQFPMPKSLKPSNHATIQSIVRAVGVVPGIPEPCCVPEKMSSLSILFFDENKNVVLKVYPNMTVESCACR

BSA = BSA (UniProt P02769); assay: EMSA; ELONA; conditions: weak non-specific binding; EMSA: 20 mM HEPES pH 7.4, 150 mM NaCl, 2 mM MgCl2, 2 mM CaCl2, 2 mM KCl, 37 C 1 h, 12% native PAGE at 4 C; label: biotin (ELONA), none in EMSA; single-stranded DNA
[2] = molecular target: rhBMP-2 (His-tagged, refolded, E. coli-expressed) (human) (UniProt P12643); assay: ssDNA Qubit assay; conditions: high-salt binding buffer; recombinant protein; protein details: His tag (pET-15b NdeI/BamHI); label: biotin (ELONA), none in EMSA; single-stranded DNA
[3] = molecular target: rhBMP-2 (His-tagged, refolded, E. coli-expressed) (human) (UniProt P12643); assay: competition with a labelled probe; conditions: EMSA: 20 mM HEPES pH 7.4, 150 mM NaCl, 2 mM MgCl2, 2 mM CaCl2, 2 mM KCl, 37 C 1 h, 12% native PAGE at 4 C, recombinant protein, protein details: His tag (pET-15b NdeI/BamHI), label: biotin (ELONA), none in EMSA, single-stranded DNA

Sequence	binding result ([1]; 1 uM BMP-2, 25 nM DNA, BA1 much stronger and stated more specific than scramble)	binding result ([1]; unbound band decreases with rhBMP-2 0-5 uM, complex band not seen, label: biotin (ELONA), none in EMSA)	binding result (BMP-3 (rhBMP-3))	binding result (BSA)	binding result [2]	binding result ([3]; BA1 pre-bound, slowly replaced by heparin)	binding result ([3]; heparin pre-bound: fully inhibited BA1 binding)	binding result ([3]; polyphosphate (polyP65) competitor, results consistent with heparin)
CGTACGGTCGACGCTAGCAAAAACAAAAAGGAAAAACCAAAAAAACATAAAAACACGTGGAGCTCGGATCC [BA5 (used as scramble control)]	binds more weakly							
CGTACGGTCGACGCTAGCAAAACAAAAAAAAATAAAAAAAAAAAGACTAAAGACACGTGGAGCTCGGATCC [BA1]		binds	binds more weakly	binds more weakly	binds more weakly	binds more weakly	no binding	binds more weakly
